Measurements taken from patent US20220235129A1.
Results are given in words; binding and its absence hold for the method and conditions named. Some results given as binding are weak or reduced against the parent protein; the word gives no strength.

Chains of the proteins cited; added tags and fusions are not shown. Lines headed by an entry give the natural chain unless they say otherwise; changes in a name come on top. A line that says so, or that is headed by a name, gives the form on record, which may keep a tag or linker.
CLDN18.2-Flag (P56856, form named): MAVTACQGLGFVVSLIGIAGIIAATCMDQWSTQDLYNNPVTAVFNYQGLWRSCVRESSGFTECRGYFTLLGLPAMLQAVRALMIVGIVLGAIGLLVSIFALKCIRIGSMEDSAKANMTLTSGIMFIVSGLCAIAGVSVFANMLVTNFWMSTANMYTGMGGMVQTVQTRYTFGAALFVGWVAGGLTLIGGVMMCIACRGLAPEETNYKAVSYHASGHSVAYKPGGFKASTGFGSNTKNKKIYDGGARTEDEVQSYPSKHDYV

Target: CLDN18.2-Flag (human) (UniProt P56856)
Assay: flow cytometry on 293t cells transiently expressing CLDN18.2-Flag, 10 µg/ml antibody

binding: binds
B1: 18.2-A6 (antibody, human IgG1, kappa, V domains shown)
VH: EVQLVQSGAEVKKPGASVKVSCKASGYTFTSYWLGWVRQAPGQGLEWIGIIYPSDSYTNYNQKFKDRATLTVDKSTSTAYMELSSLRSEDTAVYYCTRFWRGNSFDYWGQGTLVTVSS
VL: DIVMTQSPDSLTIGLGERATINCKSSQSLLNSGNQKNYLTWYQQKPGQPPKLLIYWAAGKESGVPDRFSGSGSGTDFTLTISSLQAEDVAVYYCQNGYSHPFTFGQGTKVEIKR
